Test results reported in patent US20190338002A1 (Pieris, published 2019).
Results are given in words; binding and its absence hold for the method and conditions named.

What was measured:
[1] = biological target: T1, human beta CGRP (SEQ ID NO: 81) (human, not fully specified); experiment: SPR Biacore 37 °C, hNGAL wildtype captured as ligand, hb CGRP (1-37) injected; run 130208_NAN-DS-047 [contd]
T1 peptide: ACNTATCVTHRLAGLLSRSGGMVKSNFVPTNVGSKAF

[2] = biological target: T2, human alpha CGRP (SEQ ID NO: 80) (human, not fully specified); experiment: SPR Biacore 37 °C, hNGAL wildtype captured as ligand, ha CGRP (1-37) injected; run 130208_NAN-DS-047 [contd]
T2 peptide: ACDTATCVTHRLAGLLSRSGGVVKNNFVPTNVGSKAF

[3] = biological target: T3, rat alpha CGRP (SEQ ID NO: 82) (rat); experiment: SPR Biacore 37 °C, hNGAL wildtype captured as ligand, ra CGRP (1-37) injected; run 130301_NAN-DS-049
T3 peptide: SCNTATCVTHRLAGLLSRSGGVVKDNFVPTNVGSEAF

[4] = biological target: T4, rat beta CGRP (SEQ ID NO: 83) (rat, not fully specified); experiment: SPR Biacore 37 °C, hNGAL wildtype captured as ligand, rb CGRP (1-37) injected; run 130301_NAN-DS-049
T4 peptide: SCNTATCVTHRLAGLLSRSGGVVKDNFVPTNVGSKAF

[5] = biological target: T3, rat alpha CGRP (SEQ ID NO: 82); experiment: SPR Biacore 37 °C, hNGAL wildtype captured as ligand, ra CGRP (1-37) injected; run 130208_NAN-DS-047 [contd]
[6] = biological target: T3, rat alpha CGRP (SEQ ID NO: 82); experiment: SPR, Biacore T200, 37 C
[7] = biological target: T2, human alpha CGRP (SEQ ID NO: 80); experiment: SPR, Biacore T200, 37 C
[8] = biological target: T1, human beta CGRP (SEQ ID NO: 81); experiment: SPR, Biacore T200, 37 C
[9] = biological target: T4, rat beta CGRP (SEQ ID NO: 83); experiment: SPR, Biacore T200, 37 C
[10] = biological target: T2, human alpha CGRP (SEQ ID NO: 80); experiment: SPR Biacore 37 °C, hNGAL wildtype captured as ligand, ha CGRP (1-37) injected; run 130301_NAN-DS-049
[11] = biological target: T4, rat beta CGRP (SEQ ID NO: 83); experiment: SPR Biacore 37 °C, hNGAL wildtype captured as ligand, rb CGRP (1-37) injected; run 130208_NAN-DS-047 [contd]
[12] = biological target: T1, human beta CGRP (SEQ ID NO: 81); experiment: SPR Biacore 37 °C, hNGAL wildtype captured as ligand, hb CGRP (1-37) injected; run 130301_NAN-DS-049

B1: hNGAL wildtype (SEQ ID NO:1) (other)
chain: QDSTSDLIPAPPLSKVPLQQNFQDNQFHGKWYVVGLAGNAILREDKDPQKMYATIYELKEDKSYNVTSVLFRKKKCDYWIRTFVPGSQPGEFTLGNIKSYPGLTSYLVRVVSTNYNQHAMVFFKKVSQNREYFKITLYGRTKELTSELKENFIRFSKSLGLPENHIVFPVPIDQCIDG
notes: also called human lipocalin 2; human Lcn 2
In the case of B1, the binding [1] is reported as “no binding (tested: 30 nM (not printed on the sheet))”, the binding [2] is reported as “no binding (tested: 30 nM (not printed on the sheet))” and the binding [3] is reported as “no binding (tested: 30 nM (not printed on the sheet))”. The binding [4] was “no binding (tested: 30 nM (not printed on the sheet))”, the binding [5] was “no binding (tested: 30 nM (not printed on the sheet))” and the binding [6] was “no binding”. For the same binder, the binding [7] was “no binding”, the binding [8] was “no binding” and the binding [9] was “no binding”. For the same binder, the binding [10] was “no binding (tested: 30 nM (not printed on the sheet))”, the binding [11] was “no binding (tested: 30 nM (not printed on the sheet))” and the binding [12] was “no binding (tested: 30 nM (not printed on the sheet))”.
